Patent US20090263341A1, “SOFT ANTICHOLINERGIC ESTERS” (priority 2005, published 2009)
Where two headings read alike, the source gives them in different places. Marks after values point to notes of the source that are not given here.

Tested on: guinea pig tracheal rings
Assay: Guinea pig trachea assay, pA2 against carbachol (Schild plot)
Method: Changes in isometric tension were measured by a force displacement transducer (Experimetria, Budapest, Hungary) coupled to a Watanabe recorder. Cumulative concentration-effect curves were constructed to carbachol in the absence or presence of the antagonists. In each animal two preparations were used as time control (i.e., repeated carbachol curves in the absence of any antagonist) the remaining two preparations were used to test responses in the presence of two different concentrations of the antagonist.
Antagonists were added to the organ bath 30 min prior to commencement of the agonist concentration versus effect curves. Schild plots were constructed for the antagonists against carbachol and pA2 values as well as slope estimates were obtained.
Responses were measured as changes in isometric tension and calculated as a percentage of the maximum response attained in the initial concentration-response curve. Determination of antagonist potencies was done by constructing Schild double logarithmic plot of log (DR-1) versus −log M concentrations of the antagonist, and the slope of the plot was computed. […] Statistical significance was assessed by ANOVA followed by Dunnett test.

SMILES | Schild slope ± S.E., Trachea | Schild slope ± S.E., Trachea (against carbachol)
C[N+]1(C)CCC(OC(=O)C(O)(c2ccccc2)C2CCCC2)C1.[Br-] (mixture of isomers) [glycopyrrolate, 3-(2-cyclopentyl-2-phenyl-2-hydroxyacetoxy)-1,1-dimethylpyrrolidinium bromide, reference compound] | 1.53 ± 0.07^a | 
CCOC(=O)C[N@+]1(C)CC[C@@H](OC(=O)[C@](O)(c2ccccc2)C2CCCC2)C1 [Compound (m), (2R,1′R,3′R) 3-(2-cyclopentyl-2-phenyl-2-hydroxyacetoxy)-1-(ethoxycarbonylmethyl)-1-methylpyrrolidinium bromide] |  | 1.54 ± 0.18^a
CCOC(=O)C[N+]1(C)[C@@H]2C[C@@H](OC(=O)C(O)(c3cccs3)c3cccs3)C[C@H]1[C@@H]1O[C@@H]12 (stereo partly drawn) [Compound (w), 6β,7β-epoxy-3,8-hydroxy-8-ethoxycarbonylmethyl-8-methyl-1αH,5αH-tropaniun bromide, di-2-thienylglycolate] | 1.03 ± 0.08^a | 
CC(C)[N+]1(C)[C@@H]2CC[C@H]1CC(OC(=O)C(CO)c1ccccc1)C2.[Br-] (stereo partly shown) [Ipratropium Br, ipratropium bromide] | 1.11 ± 0.14^a | 
